The results in this text go back to PMC8384837.

Where a chain is given by its changes, count along the chain named. The list shows a part of the results. For some assays here: At the low end of the ranking the order means little.

Common to all, as to conditions: yeast three-hybrid, YBZ-1, SC-Leu-His + 0.5 mM 3-AT, 4 days
Experiment [1] deals with T1, PUM1 PUF domain R2-KRA N899K + Y900R + Q903A (Homo sapiens) (UniProt Q14671).
T1 sequence: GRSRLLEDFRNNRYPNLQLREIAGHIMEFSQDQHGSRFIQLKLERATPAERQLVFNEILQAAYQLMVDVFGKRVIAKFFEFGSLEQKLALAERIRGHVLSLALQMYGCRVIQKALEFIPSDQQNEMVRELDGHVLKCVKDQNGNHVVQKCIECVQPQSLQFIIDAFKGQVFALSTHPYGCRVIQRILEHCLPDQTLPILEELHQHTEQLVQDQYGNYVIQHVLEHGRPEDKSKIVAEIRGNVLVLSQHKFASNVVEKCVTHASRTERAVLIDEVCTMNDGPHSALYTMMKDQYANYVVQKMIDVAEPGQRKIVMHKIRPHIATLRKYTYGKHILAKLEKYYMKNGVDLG

Experiment [2] concerns the target T2, PUM1 PUF domain R2-KRG N899K + Y900R + Q903G (Homo sapiens) (UniProt Q14671).
T2 sequence: T1 sequence with A76G

Experiment [3] addresses T3, PUM1 PUF domain R2-LLL N899L + Y900L + Q903L (Homo sapiens) (UniProt Q14671).
T3 sequence: T1 sequence with K72L, R73L, A76L

Experiment [4] has as its target T4, PUM1 PUF domain R2-LLY N899L + Y900L + Q903Y (Homo sapiens) (UniProt Q14671).
T4 sequence: T1 sequence with K72L, R73L, A76Y

Experiment [5] has as its target T5, PUM1 PUF domain R2-MWR N899M + Y900W + Q903R (UniProt Q14671).
T5 sequence: T1 sequence with K72M, R73W, A76R

The target of experiment [6] is T6, PUM1 PUF domain R2-QWR N899Q + Y900W + Q903R (UniProt Q14671).
T6 sequence: T1 sequence with K72Q, R73W, A76R

Experiment [7] concerns the target T7, PUM1 PUF domain R2-RKA N899R + Y900K + Q903A (UniProt Q14671).
T7 sequence: T1 sequence with K72R, R73K

Experiment [8] has as its target T8, PUM1 PUF domain R2-RKG N899R + Y900K + Q903G (UniProt Q14671).
T8 sequence: T1 sequence with K72R, R73K, A76G

For experiment [9], the target named is T9, PUM1 PUF domain R2-RKW N899R + Y900K + Q903W (Homo sapiens) (UniProt Q14671).
T9 sequence: T1 sequence with K72R, R73K, A76W

Experiment [10] has as its target T10, PUM1 PUF domain R2-RRC N899R + Y900R + Q903C (Homo sapiens) (UniProt Q14671).
T10 sequence: T1 sequence with K72R, A76C

In experiment [11] the target is T11, PUM1 PUF domain R2-RRM N899R + Y900R + Q903M (UniProt Q14671).
T11 sequence: T1 sequence with K72R, A76M

For experiment [12], the target named is T12, PUM1 PUF domain R2-RVN N899R + Y900V + Q903N (Homo sapiens) (UniProt Q14671).
T12 sequence: T1 sequence with K72R, R73V, A76N

In experiment [13] the target is T13, PUM1 PUF domain R2-RVT N899R + Y900V + Q903T (Homo sapiens) (UniProt Q14671).
T13 sequence: T1 sequence with K72R, R73V, A76T

Experiment [14] deals with T14, PUM1 PUF domain R3-AAE C935A + R936A + Q939E (UniProt Q14671).
T14 sequence: T1 sequence with K72N, R73Y, A76Q, C108A, R109A, Q112E

For experiment [15], the target named is T15, PUM1 PUF domain R3-APF C935A + R936P + Q939F (UniProt Q14671).
T15 sequence: T1 sequence with K72N, R73Y, A76Q, C108A, R109P, Q112F

Experiment [16] deals with T16, PUM1 PUF domain R3-GND C935G + R936N + Q939D (UniProt Q14671).
T16 sequence: T1 sequence with K72N, R73Y, A76Q, C108G, R109N, Q112D

Experiment [17] deals with T17, PUM1 PUF domain R3-GVE C935G + R936V + Q939E (UniProt Q14671).
T17 sequence: T1 sequence with K72N, R73Y, A76Q, C108G, R109V, Q112E

Experiment [18] has as its target T18, PUM1 PUF domain R3-SSE C935S + R936S + Q939E (UniProt Q14671).
T18 sequence: T1 sequence with K72N, R73Y, A76Q, C108S, R109S, Q112E

For experiment [19], the target named is T19, PUM1 PUF domain R3-VRF C935V + Q939F (UniProt Q14671).
T19 sequence: T1 sequence with K72N, R73Y, A76Q, C108V, Q112F

Experiment [20] has as its target T20, PUM1 PUF domain R3-VRT C935V + Q939T (UniProt Q14671).
T20 sequence: T1 sequence with K72N, R73Y, A76Q, C108V, Q112T

Turning to “GGCUAGAACUAGUGGAUCCCCCGGCGCCCGGCGGCUCGAGCCCGGGUAAGUGUAAAAAGUCUGCAUGCCGCCGGGCGCCAUGCCUGCAGGUCGACUCUAGAAAACAUG”, the binding signal (log2 enrichment (interaction score)) was -2.18 in experiment [1]; -3.03 in experiment [2]; -6.31 in experiment [3]; -1.47 in experiment [4]; -4.6 in experiment [5]; -3.98 in [6]. The binding signal (log2 enrichment (interaction score)) in experiment [7] was less than -8.09; in experiment [8], less than -10.2; in [9], -5.25; in experiment [10] it was -1.18; in experiment [11], less than -6.7; in experiment [12], -1.66. Also, the binding signal (log2 enrichment (interaction score)) in [13] was -5.29.

For the sequence “GGCUAGAACUAGUGGAUCCCCCGGCGCCCGGCGGCUCGAGCCCGGGUAAGUGUAAUUAGUCUGCAUGCCGCCGGGCGCCAUGCCUGCAGGUCGACUCUAGAAAACAUG”, the binding signal (log2 enrichment (interaction score)) in [14] was less than -8.86; in [15], -3.41; in experiment [16], -3.69; in experiment [17], less than -10.5; in [18] it was -2.61; in [19], -2.85. The binding signal (log2 enrichment (interaction score)) in experiment [20] is -3.42.
